Results are given in words; binding and its absence hold for the method and conditions named. Binding can be weak; no strength is given.
Target: FVIIa (human) (UniProt P08709)
Test: ITC

The chains behind the UniProt entries cited, without tags or fusion partners. Where a name states a change or a piece, a line headed by the entry shows the natural chain unless it says otherwise.
UniProt P08709: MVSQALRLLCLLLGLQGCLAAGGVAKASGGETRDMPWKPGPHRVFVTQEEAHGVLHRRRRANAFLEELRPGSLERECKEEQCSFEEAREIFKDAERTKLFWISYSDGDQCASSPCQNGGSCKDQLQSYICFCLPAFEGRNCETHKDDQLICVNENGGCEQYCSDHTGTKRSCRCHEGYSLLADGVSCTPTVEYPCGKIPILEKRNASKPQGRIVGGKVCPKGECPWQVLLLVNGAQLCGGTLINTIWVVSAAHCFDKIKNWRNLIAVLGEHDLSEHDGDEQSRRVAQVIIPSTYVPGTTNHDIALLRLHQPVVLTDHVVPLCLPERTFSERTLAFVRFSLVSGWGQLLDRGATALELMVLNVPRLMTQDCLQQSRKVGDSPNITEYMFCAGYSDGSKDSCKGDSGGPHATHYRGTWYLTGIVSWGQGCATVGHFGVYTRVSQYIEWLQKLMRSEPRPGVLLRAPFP

B1: hemextin AB complex (protein)
chain 1: LKCKNKLVPFLSKTCPEGKNLCYKMTMLKMPKIPIKRGCTDACPKSSLLVKVVCCNKDKCN
chain 2: LKCKNKVVPFLKCKNKVVPFLCYKMTLKKVPKIPIKRGCTDACPKSSLLVNVMCCKTDKCN
  binding: binds
